Hit rate of the full screen: of about 52,000 sequences, about 210 (0.4%) were called active.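 The calls were made as follows: active = gene whose silencing raises cell survival under the drug, median off-target-corrected z-score across its silencing RNAs 2 or more; inactive = the rest.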 Some of the results follow.
test: Resistance to Poly (ADP-Ribose) Polymerase inhibitor: Gene Identification via Genome-wide siRNA Screen; conditions: mouse BRCA2 R2336H ES cells, olaparib, CellTiter-Glo viability; active compounds read high
Method in brief: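 Genome-wide siRNA screen (3 siRNAs/gene, 20 nM) in mouse ES cells carrying hypomorphic BRCA2 R2336H; olaparib 500 nM added 48 h post-transfection, CellTiter-Glo viability 72 h later. Normalized to plate-median negative control; MAD z-scores, gene median, seed-adjusted.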

Row | Sequence | z-score
1 | GGCCGAUUCCAUUGUACAGTT against 1700047I17Rik | inactive: -1.74
2 | CCACUUCCGAUGAGCCAGATT against Mrps10 | inactive: -2.38
3 | GGGAUAAGGGAAGUUAGGUTT against 4732486J07Rik | inactive: 0.808
4 | GGCUGUCCUUUUCCUCUUATT against A430107J06Rik | inactive: 0.489
5 | GGACACAGAAAAUAUCCCATT against Sct | inactive: 0.572
6 | GGAAGGUUUUACUCAGGCUTT against 1700034M03Rik | inactive: 0.372
7 | CCUAAUGAAUGGCUAAAUATT against Aps | inactive: 0.693
8 | GGAAACAAGAGUUGGAUAGTT against Pclo | inactive: -1.95
9 | GGACCAUAAGCACAUGAUUTT against Prlpo | inactive: -0.85
10 | GGAUCCUUCCAAAAGGAAATT against Alg3 | inactive: 1.46
11 | CCUUAGACAUCGAAGUAAUTT against Hrh4 | inactive: 1.61
12 | GCAACUUGUUAGUGGACUCTT against Olfr620 | inactive: -1.67
13 | GCAUUAAAGUAGAAGGUCUTT against 4631426E05Rik | inactive: -0.381
14 | GCUAGGAGACAUUAGCUACTT against Slc13a4 | inactive: 0.737
15 | GGUUUUACACACUCCAUGATT against Olfr1246 | inactive: -0.192
16 | GGAAACCUCGCAUCAAUUCTT against Rybp | inactive: -0.672
17 | GGUUUGUGAAAGAUAAUGGTT against Gzmf | inactive: 1.44
18 | UCAUCGCAACCAUCCACAGTT against Olfr530 | inactive: -0.606
19 | GGAGCUUCCUGCUAUUUUATT against Tmem5 | inactive: -0.134
20 | GGGUUGGAUUCCUACCCAGTT against AA986860 | inactive: 0.798
21 | GCCUCUCAACUUAAUAACATT against 2700019D07Rik | inactive: -0.00102
22 | GCUGAGGAAAUGCGAAGUCTT against 6530411B15Rik | inactive: 0.675

Already shown: entries from further up.
Row | Sequence | z-score
14 | GCUAGGAGACAUUAGCUACTT against Slc13a4 | inactive: 0.737
15 | GGUUUUACACACUCCAUGATT against Olfr1246 | inactive: -0.192

(list continues)

Row | Sequence | z-score
23 | GGAUUCUUGGUAGCCCAAATT against Magea2 | inactive: -1.34
24 | CGUAUGGAUGGAAUACAAUTT against Rap2b | inactive: 0.482
25 | CCUUACCACAUCCUUGUCGTT against 1110008B24Rik | inactive: -2.34
26 | GGUUCUGGAGAACAGAGUCTT against 4930483J18Rik | inactive: -0.929
27 | CCCGUUGCAUGUUAUAUGCTT against Gtpbp3 | inactive: 0.671
28 | GGACAAAGUGAAUUAUAGCTT against 2310075C12Rik | inactive: 0.703
29 | GGGAAUUCUAUUCAACACUTT against Rps6ka5 | inactive: 1.22
30 | CGUUUAUGUGUAUUAACCATT against Ppid | inactive: -1.65
31 | GCUUUAUCUAUUUCACCAATT against Olfr1442 | inactive: 0.86
32 | GGACUGAUAUCAUUUCUGATT against 4933425F06Rik | inactive: 0.792
33 | GCCGCCACAAAGUUUGCAUTT against Spock3 | inactive: -0.459
34 | GGAAAUGACGACUACCAAGTT against D10Bwg0791e | inactive: 0.356
35 | CCUCAUUGUGGUUACCCUCTT against Olfr93 | inactive: -1.35
36 | GGACAGUACGCAAAGACCUTT against Rxra | inactive: -0.924
37 | GGGCGAAGAUACAAGUGACTT against Tnp2 | inactive: -1.34
38 | GGCCUGCAUGGAACAAAUGTT against Gpr100 | inactive: -2.15
39 | GCUUAGAGCAUUUCAGUCUTT against 2810406C15Rik | inactive: -1.95
40 | GGACCACCUUUUGGACAAATT against V1ri3 | inactive: -2.01
41 | GGAAAAGGUCCUGUGCUGUTT against Abhd2 | inactive: 0.338
42 | CGGAUAUCACUCUGAGAAGTT against Loxl4 | inactive: -0.629
43 | GGAAGAGAGCAUUAAGCCCTT against 1200009C21Rik | inactive: -0.475
44 | GGAGACAGAAUUCAAAACUTT against P2ry1 | inactive: 1.46

Row | Sequence | z-score
45 | GGCUUUGUGGAUUUUGAAGTT against Cabp4 | inactive: 0.312
46 | GCCAUUAAUAAUCAGUACUTT against Sh2bpsm1 | inactive: 0.686
47 | CGUAGAAAGCUCAUUAUUUTT against Clmn | inactive: -0.286
48 | CAACUCCGGAAGACCAGGATT against AW146299 | inactive: 2.02
49 | GCUCUGUUACUAUUUGAAUTT against Cts6 | inactive: 0.662
50 | GGCUAAGACUCUCUGAAAUTT against F2rl1 | inactive: -0.113
51 | CCAGUCACUAUUUGAGUGUTT against Erg | inactive: 0.122
52 | GGAAAGACCAAAUCAGAUGTT against Arid5a | inactive: -1.26
53 | GGAAUUCCAGUUUCUUCAATT against Tle2 | inactive: 1.06
54 | GGAUCCAAGGGCAAAAGAUTT against Siat7a | inactive: -1.18
55 | GCGUGUGAUUAAUAAAGUUTT against Vps54 | inactive: 0.999
56 | GCCAUUAUAUAGUCCUACCTT against Klf1 | inactive: 0.276
57 | GCAAAGAAGCUCUUUAGAGTT against Hoxc5 | inactive: 0.595
58 | GGGCUGAAAGACUCAAAGCTT against Olfr577 | inactive: -0.529
59 | CCGAAUGUUCCAUGUUUGUTT against Lrrc5 | inactive: 1
60 | GGACAAUCCUGUCUUCCAGTT against Paox | inactive: 2.02
61 | GGAGAGAUUAAUUUCUGUATT against 4430402I18Rik | inactive: 0.0876
62 | GGAAUUAGAGAACUUAGUUTT against Gclm | inactive: -0.606
63 | GGAUUUAGCCAUGGAUUUCTT against D030014N22Rik | inactive: 0.105
64 | GGCACUGUAAAUGUACUCATT against Rbak | inactive: 1.36
65 | GGAAUGUCAGUAAUCAGUGTT against Cox10 | inactive: -0.306
66 | GGAUUUUAGCUGUUCUUGATT against Enpp1 | inactive: 0.431
